Measured values taken from patent US20230285227A1, “INGESTIBLE CAPSULES” (Massachusetts Institute of Technology, priority 2022, published 2023).
Some entries share one result that the patent states for a list of compounds.

Conditions: ex vivo and in vivo swine models; p<0.05

In the case of CN[C@H](CC(C)C)C(=O)N[C@H]1C(=O)N[C@@H](CC(N)=O)C(=O)N[C@H]2C(=O)N[C@H]3C(=O)N[C@H](C(=O)N[C@H](C(=O)O)c4cc(O)cc(O)c4-c4cc3ccc4O)[C@H](O)c3ccc(c(Cl)c3)Oc3cc2cc(c3O[C@@H]2O[C@H](CO)[C@@H](O)[C@H](O)[C@H]2O[C@H]2C[C@](C)(N)[C@H](O)[C@H](C)O2)Oc2ccc(cc2Cl)[C@H]1O [vancomycin], the “enhancement of bioavailability by capsule delivery compared to standard oral delivery” value is reported as 20-40 fold.
